PubChem BioAssay AID1259254, NCATS – 2017

- Screen: 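Genome-wide screen for genes that prevent DNA re-replication in cancer cells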 (primary screen)
- Cells: human HCT116 colorectal cancer cells
- Reagent: single siRNA against human genes
- Time to read-out: 3 days
- Read-out: 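Nuclei stained with Hoechst and imaged; cell-cycle phase assigned by DNA content; G2 share scaled per plate, non-targeting siRNA 0%, GMNN siRNA 100%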
- Reading the numbers: G2 robust z-score and G2 cells, % of GMNN control: higher = more G2 cells, more excess DNA replication; raw share of cells in G2: higher = larger share of cells with G2 DNA content
- Active means: 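An siRNA counts as active if its G2 robust z-score lies at least 5 MADs above the screen median; here such calls match roughly 38% of GMNN control or more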
In all, the deposit lists about 59,000 reagents; this is a part drawn at random. Over the whole deposit, about 1,550 (2.6%) were called active. 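G2 share is only a proxy for re-replication; each gene was hit by three separate siRNAs, and active genes were retested.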 Raw values are not corrected between plates. No sequences are given here. Not given: the amount of reagent.

gene knocked down,PubChem SID,G2 robust z-score,"G2 cells, % of GMNN control",raw share of cells in G2 (%),Outcome
LPL (lipoprotein lipase),SID160775422,-1.03,-4.27,1.79,inactive
LPL (lipoprotein lipase),SID160775431,2.57,21,13.5,inactive
LPL (lipoprotein lipase),SID160775439,0.374,5.6,7.69,inactive
MRPL38 (mitochondrial ribosomal protein L38),SID160734083,-0.728,-2.15,2.13,inactive
MRPL38 (mitochondrial ribosomal protein L38),SID160748186,0.00411,3,5.89,inactive
MRPL38 (mitochondrial ribosomal protein L38),SID160748187,-1.08,-4.6,2.55,inactive
TMEM50A (transmembrane protein 50A),SID160732772,0.775,8.42,6.24,inactive
TMEM50A (transmembrane protein 50A),SID160736614,0.967,9.77,8.09,inactive
TMEM50A (transmembrane protein 50A),SID160736615,-0.63,-1.46,3.31,inactive
GALNT18 (polypeptide N-acetylgalactosaminyltransferase 18),SID160765257,-1.31,-6.27,2.51,inactive
GALNT18 (polypeptide N-acetylgalactosaminyltransferase 18),SID160765258,1.01,10,7.95,inactive
GALNT18 (polypeptide N-acetylgalactosaminyltransferase 18),SID160765259,0.258,4.78,7.97,inactive
MOAP1 (modulator of apoptosis 1),SID160747477,-0.695,-1.93,2.11,inactive
MOAP1 (modulator of apoptosis 1),SID160747479,-0.487,-0.458,5.7,inactive
MOAP1 (modulator of apoptosis 1),SID160747480,-0.117,2.14,4.31,inactive
CACNA1H (calcium voltage-gated channel subunit alpha1 H),SID160721128,1.95,16.7,11.4,inactive
CACNA1H (calcium voltage-gated channel subunit alpha1 H),SID160721129,-0.168,1.78,5.39,inactive
CACNA1H (calcium voltage-gated channel subunit alpha1 H),SID160721130,-1.4,-6.89,1.69,inactive
IL36A (interleukin 36 alpha),SID160738514,-0.0811,2.4,4.77,inactive
IL36A (interleukin 36 alpha),SID160738515,1.11,10.8,8.63,inactive
IL36A (interleukin 36 alpha),SID160738516,3.3,26.2,11.5,inactive
FAM221B (family with sequence similarity 221 member B),SID160733286,0.217,4.49,6.65,inactive
FAM221B (family with sequence similarity 221 member B),SID160766750,-0.725,-2.13,3.03,inactive
FAM221B (family with sequence similarity 221 member B),SID160766751,-0.58,-1.11,3.08,inactive
DDX43 (DEAD-box helicase 43),SID160743736,1.37,12.6,8.95,inactive
DDX43 (DEAD-box helicase 43),SID160743738,-1.15,-5.12,4.19,inactive
DDX43 (DEAD-box helicase 43),SID160743739,-0.817,-2.78,3.18,inactive
OR8D4 (olfactory receptor family 8 subfamily D member 4),SID160764066,3.47,27.3,13.4,inactive
OR8D4 (olfactory receptor family 8 subfamily D member 4),SID160764067,-0.35,0.504,3.48,inactive
OR8D4 (olfactory receptor family 8 subfamily D member 4),SID160764068,0.913,9.39,7.97,inactive
IBTK (inhibitor of Bruton tyrosine kinase),SID160737414,-0.237,1.3,4.9,inactive
IBTK (inhibitor of Bruton tyrosine kinase),SID160737415,0.804,8.62,7.67,inactive
IBTK (inhibitor of Bruton tyrosine kinase),SID160737418,-0.694,-1.91,2.63,inactive
OAS3 (2'-5'-oligoadenylate synthetase 3),SID160778322,-0.646,-1.58,2.66,inactive
OAS3 (2'-5'-oligoadenylate synthetase 3),SID160778323,1.63,14.5,10.6,inactive
OAS3 (2'-5'-oligoadenylate synthetase 3),SID160778324,-0.776,-2.49,4.26,inactive
MRPS10 (mitochondrial ribosomal protein S10),SID160743127,-0.833,-2.89,3.41,inactive
MRPS10 (mitochondrial ribosomal protein S10),SID160743128,-0.0173,2.85,5.32,inactive
MRPS10 (mitochondrial ribosomal protein S10),SID160743129,-0.572,-1.06,2.8,inactive
SH3RF1 (SH3 domain containing ring finger 1),SID160746451,-0.621,-1.4,3.79,inactive
SH3RF1 (SH3 domain containing ring finger 1),SID160746452,-0.491,-0.487,4.23,inactive
SH3RF1 (SH3 domain containing ring finger 1),SID160746454,-0.865,-3.12,2.04,inactive
OFD1 (OFD1 centriole and centriolar satellite protein),SID160720134,-0.359,0.438,4.74,inactive
OFD1 (OFD1 centriole and centriolar satellite protein),SID160720135,9.23,67.9,29,active
OFD1 (OFD1 centriole and centriolar satellite protein),SID160720137,1.29,12.1,9.5,inactive
"MTURN (maturin, neural progenitor differentiation regulator homolog)",SID160761810,-0.059,2.55,4.5,inactive
"MTURN (maturin, neural progenitor differentiation regulator homolog)",SID160761812,0.455,6.17,5.24,inactive
"MTURN (maturin, neural progenitor differentiation regulator homolog)",SID160761813,0.00867,3.03,4.16,inactive
OR4D6 (olfactory receptor family 4 subfamily D member 6),SID160761447,0.386,5.68,5.64,inactive
OR4D6 (olfactory receptor family 4 subfamily D member 6),SID160761448,-0.771,-2.46,2.29,inactive
OR4D6 (olfactory receptor family 4 subfamily D member 6),SID160761449,0.451,6.14,5.15,inactive
SLC45A3,SID160732061,-0.714,-2.06,3.7,inactive
SLC45A3,SID160753258,1.47,13.3,11.8,inactive
SLC45A3,SID160753259,-0.537,-0.81,4.62,inactive
ZNF778 (zinc finger protein 778),SID160724907,0.584,7.07,7.67,inactive
ZNF778 (zinc finger protein 778),SID160760701,0.1,3.67,7.71,inactive
ZNF778 (zinc finger protein 778),SID160760702,-0.917,-3.48,3.43,inactive
RAD1 (RAD1 checkpoint DNA exonuclease),SID160715442,-1.01,-4.17,3.09,inactive
RAD1 (RAD1 checkpoint DNA exonuclease),SID160715443,-0.445,-0.164,4.09,inactive
RAD1 (RAD1 checkpoint DNA exonuclease),SID160715445,-0.191,1.63,5.54,inactive
DPH6 (diphthamine biosynthesis 6),SID160753530,-0.943,-3.66,2.53,inactive
DPH6 (diphthamine biosynthesis 6),SID160753531,-0.465,-0.304,2.91,inactive
DPH6 (diphthamine biosynthesis 6),SID160753532,0.293,5.03,4.52,inactive
AGPAT2 (1-acylglycerol-3-phosphate O-acyltransferase 2),SID160728718,-1.26,-5.91,4.15,inactive
AGPAT2 (1-acylglycerol-3-phosphate O-acyltransferase 2),SID160728719,0.754,8.27,9.29,inactive
AGPAT2 (1-acylglycerol-3-phosphate O-acyltransferase 2),SID160730449,-0.242,1.26,4.25,inactive
"LSM1 (LSM1 homolog, mRNA degradation associated)",SID160738627,0.57,6.98,9.33,inactive
"LSM1 (LSM1 homolog, mRNA degradation associated)",SID160738628,0.195,4.34,5.63,inactive
"LSM1 (LSM1 homolog, mRNA degradation associated)",SID160738629,-0.665,-1.71,3.43,inactive
LINC01257 (long independently transcribed non-coding RNA 1257),SID160732357,1.34,12.4,7.03,inactive
LINC01257 (long independently transcribed non-coding RNA 1257),SID160732358,-0.69,-1.89,1.27,inactive
LINC01257 (long independently transcribed non-coding RNA 1257),SID160755413,-0.403,0.131,4.14,inactive
ACOT13 (acyl-CoA thioesterase 13),SID160744532,1.03,10.2,10.9,inactive
ACOT13 (acyl-CoA thioesterase 13),SID160744533,-0.802,-2.67,3.22,inactive
ACOT13 (acyl-CoA thioesterase 13),SID160744534,-0.415,0.051,4.46,inactive
CASP3 (caspase 3),SID160752982,0.639,7.47,8.16,inactive
CASP3 (caspase 3),SID160753084,3.88,30.2,15.6,inactive
CASP3 (caspase 3),SID160753183,0.0622,3.4,5.18,inactive
RDH13 (retinol dehydrogenase 13),SID160754723,0.941,9.59,10.1,inactive
RDH13 (retinol dehydrogenase 13),SID160754724,-0.579,-1.11,4.49,inactive
RDH13 (retinol dehydrogenase 13),SID160754725,0.187,4.29,6.1,inactive
DNTTIP1 (deoxynucleotidyltransferase terminal interacting protein 1),SID160730552,-0.522,-0.703,3.72,inactive
DNTTIP1 (deoxynucleotidyltransferase terminal interacting protein 1),SID160755325,2.81,22.8,13.3,inactive
DNTTIP1 (deoxynucleotidyltransferase terminal interacting protein 1),SID160755326,0.676,7.72,7.19,inactive
GRB10 (growth factor receptor bound protein 10),SID160774092,-0.873,-3.17,4.08,inactive
GRB10 (growth factor receptor bound protein 10),SID160774096,-0.166,1.8,5.95,inactive
GRB10 (growth factor receptor bound protein 10),SID160774107,4.07,31.6,14.9,inactive
